The shares of active, inactive and inconclusive entries below differ from those in the screen. Potencies beside an inconclusive call are fits to weak or partial responses and may not hold up. The source made the active and inactive calls. Rule for the calls: active = hit-call score of the fitted dose curve at least 0.9, where 1 is the maximum; inconclusive = response in the unintended direction; inactive = score below 0.9.
Tests used:
[1] = biological target: human Protein Tyrosine Phosphatase Non-receptor Type 6 (PTPN6), PTPN6 (gene 5777) (UniProt P29350); assay: NVS_ENZ_hPTPN6: NovaScreen (NVS) Enzymatic Assay for human Protein Tyrosine Phosphatase Non-receptor Type 6 (PTPN6) (AID 2283210)
Summary of the method: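 Cell-free assay with recombinant PTPN6 expressed in SF9 cells, fluorescent substrate, product separated from substrate by electrophoretic mobility shift; read 1.33 hours after dosing. Primary screen in duplicate at 25 uM, actives retested in concentration series; DMSO baseline.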

Protein sequences, listed by entry. Tags and fused reporters are not part of them. Lines headed by an entry give the natural chain unless they say otherwise; changes in a name come on top.
UniProt P29350: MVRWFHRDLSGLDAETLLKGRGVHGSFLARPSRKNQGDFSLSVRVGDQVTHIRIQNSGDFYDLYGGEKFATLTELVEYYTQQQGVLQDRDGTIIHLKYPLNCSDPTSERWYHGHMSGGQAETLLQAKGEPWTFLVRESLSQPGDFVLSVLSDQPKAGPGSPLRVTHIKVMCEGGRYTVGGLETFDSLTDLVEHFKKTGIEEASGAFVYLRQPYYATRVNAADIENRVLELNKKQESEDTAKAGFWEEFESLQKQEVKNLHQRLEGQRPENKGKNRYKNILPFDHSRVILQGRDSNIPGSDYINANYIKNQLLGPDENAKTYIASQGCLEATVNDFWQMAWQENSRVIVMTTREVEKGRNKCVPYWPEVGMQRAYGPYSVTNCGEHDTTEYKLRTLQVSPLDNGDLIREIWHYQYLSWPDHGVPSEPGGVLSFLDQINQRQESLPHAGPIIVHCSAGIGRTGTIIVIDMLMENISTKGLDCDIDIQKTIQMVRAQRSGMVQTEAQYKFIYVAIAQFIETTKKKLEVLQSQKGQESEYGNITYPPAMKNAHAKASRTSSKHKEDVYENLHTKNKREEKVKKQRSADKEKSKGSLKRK
UniProt Q13464: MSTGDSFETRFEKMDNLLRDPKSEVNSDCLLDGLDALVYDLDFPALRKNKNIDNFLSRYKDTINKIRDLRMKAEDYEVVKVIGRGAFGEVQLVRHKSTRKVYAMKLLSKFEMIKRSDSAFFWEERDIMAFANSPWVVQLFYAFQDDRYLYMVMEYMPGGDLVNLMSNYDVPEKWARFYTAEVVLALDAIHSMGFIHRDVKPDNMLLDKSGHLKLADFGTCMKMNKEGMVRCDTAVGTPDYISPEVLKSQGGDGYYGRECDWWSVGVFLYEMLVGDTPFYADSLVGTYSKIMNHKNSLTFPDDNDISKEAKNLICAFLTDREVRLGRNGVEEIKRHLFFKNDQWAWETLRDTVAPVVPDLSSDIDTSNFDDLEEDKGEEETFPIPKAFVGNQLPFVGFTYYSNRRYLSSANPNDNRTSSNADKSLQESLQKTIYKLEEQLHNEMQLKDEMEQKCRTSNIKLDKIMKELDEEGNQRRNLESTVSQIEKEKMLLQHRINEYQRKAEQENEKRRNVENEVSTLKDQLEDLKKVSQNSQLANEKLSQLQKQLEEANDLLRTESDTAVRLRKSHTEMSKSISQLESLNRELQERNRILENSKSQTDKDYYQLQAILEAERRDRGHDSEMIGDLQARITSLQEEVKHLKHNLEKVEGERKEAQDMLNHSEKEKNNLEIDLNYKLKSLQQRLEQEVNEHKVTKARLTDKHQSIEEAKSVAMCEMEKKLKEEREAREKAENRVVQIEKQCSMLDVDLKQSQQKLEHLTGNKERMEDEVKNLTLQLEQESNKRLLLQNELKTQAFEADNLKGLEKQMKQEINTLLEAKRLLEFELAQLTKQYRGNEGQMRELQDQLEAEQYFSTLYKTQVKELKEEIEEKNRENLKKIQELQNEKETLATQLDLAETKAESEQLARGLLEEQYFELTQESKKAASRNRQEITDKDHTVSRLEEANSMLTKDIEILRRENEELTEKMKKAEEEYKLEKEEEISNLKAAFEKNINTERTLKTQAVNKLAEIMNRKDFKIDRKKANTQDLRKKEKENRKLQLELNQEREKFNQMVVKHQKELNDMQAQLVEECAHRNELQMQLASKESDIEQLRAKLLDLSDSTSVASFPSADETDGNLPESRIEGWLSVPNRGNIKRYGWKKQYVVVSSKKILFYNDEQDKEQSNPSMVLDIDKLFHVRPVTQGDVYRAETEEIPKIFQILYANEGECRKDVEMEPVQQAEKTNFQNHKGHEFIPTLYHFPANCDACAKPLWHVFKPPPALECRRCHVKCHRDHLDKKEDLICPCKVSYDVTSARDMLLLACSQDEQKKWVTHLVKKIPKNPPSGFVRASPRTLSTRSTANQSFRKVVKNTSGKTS
UniProt P43378: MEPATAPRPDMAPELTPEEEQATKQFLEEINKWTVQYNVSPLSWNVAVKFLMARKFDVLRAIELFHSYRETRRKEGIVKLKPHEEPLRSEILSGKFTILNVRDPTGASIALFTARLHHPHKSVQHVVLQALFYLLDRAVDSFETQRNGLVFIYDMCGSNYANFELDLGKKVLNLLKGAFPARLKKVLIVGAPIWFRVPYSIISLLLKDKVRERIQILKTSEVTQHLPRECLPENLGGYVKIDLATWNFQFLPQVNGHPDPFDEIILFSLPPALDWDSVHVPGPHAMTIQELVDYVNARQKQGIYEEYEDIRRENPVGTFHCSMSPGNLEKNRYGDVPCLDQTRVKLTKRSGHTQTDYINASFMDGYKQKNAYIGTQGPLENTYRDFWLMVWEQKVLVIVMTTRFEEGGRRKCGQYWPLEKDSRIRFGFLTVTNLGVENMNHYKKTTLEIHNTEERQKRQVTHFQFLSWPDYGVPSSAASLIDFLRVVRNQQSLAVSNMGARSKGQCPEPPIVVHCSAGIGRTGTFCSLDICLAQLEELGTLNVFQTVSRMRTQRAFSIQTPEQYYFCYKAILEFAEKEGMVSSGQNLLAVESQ
UniProt P28827, whole entry, looked up: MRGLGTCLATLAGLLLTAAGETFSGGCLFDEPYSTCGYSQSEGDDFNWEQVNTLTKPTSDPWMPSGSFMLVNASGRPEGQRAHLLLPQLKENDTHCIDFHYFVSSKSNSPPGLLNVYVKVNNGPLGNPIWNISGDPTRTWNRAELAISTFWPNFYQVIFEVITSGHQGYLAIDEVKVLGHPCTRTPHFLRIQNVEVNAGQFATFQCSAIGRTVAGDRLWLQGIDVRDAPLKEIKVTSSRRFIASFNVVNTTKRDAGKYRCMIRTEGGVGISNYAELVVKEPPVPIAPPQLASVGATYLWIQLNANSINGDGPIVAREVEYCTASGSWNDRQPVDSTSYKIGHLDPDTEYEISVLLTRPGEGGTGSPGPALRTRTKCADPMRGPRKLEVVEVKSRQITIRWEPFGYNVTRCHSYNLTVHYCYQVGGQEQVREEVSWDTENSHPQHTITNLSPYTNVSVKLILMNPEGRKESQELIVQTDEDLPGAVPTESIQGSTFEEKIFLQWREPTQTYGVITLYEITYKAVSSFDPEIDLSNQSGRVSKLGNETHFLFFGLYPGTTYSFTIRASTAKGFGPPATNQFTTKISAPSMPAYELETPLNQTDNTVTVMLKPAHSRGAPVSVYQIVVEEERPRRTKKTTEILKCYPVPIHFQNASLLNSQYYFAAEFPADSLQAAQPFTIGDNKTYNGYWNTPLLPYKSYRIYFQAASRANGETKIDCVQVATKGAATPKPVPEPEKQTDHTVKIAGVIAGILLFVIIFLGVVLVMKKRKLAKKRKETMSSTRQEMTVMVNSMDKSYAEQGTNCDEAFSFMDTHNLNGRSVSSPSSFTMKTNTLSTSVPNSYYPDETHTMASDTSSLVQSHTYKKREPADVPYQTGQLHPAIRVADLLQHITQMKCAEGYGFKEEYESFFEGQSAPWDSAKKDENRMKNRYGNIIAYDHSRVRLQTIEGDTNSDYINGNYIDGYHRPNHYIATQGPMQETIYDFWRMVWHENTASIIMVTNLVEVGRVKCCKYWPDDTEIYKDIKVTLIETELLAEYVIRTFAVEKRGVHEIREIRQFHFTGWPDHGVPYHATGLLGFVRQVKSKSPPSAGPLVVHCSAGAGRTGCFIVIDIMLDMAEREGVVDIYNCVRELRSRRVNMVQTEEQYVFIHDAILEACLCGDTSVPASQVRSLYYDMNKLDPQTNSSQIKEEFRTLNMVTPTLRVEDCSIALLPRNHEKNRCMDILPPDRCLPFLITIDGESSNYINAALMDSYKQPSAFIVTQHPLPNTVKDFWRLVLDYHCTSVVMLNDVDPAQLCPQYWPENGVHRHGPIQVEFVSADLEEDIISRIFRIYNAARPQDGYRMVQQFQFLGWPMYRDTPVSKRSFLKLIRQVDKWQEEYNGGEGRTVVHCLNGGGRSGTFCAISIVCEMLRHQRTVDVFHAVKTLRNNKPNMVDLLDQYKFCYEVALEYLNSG
UniProt Q96EB6: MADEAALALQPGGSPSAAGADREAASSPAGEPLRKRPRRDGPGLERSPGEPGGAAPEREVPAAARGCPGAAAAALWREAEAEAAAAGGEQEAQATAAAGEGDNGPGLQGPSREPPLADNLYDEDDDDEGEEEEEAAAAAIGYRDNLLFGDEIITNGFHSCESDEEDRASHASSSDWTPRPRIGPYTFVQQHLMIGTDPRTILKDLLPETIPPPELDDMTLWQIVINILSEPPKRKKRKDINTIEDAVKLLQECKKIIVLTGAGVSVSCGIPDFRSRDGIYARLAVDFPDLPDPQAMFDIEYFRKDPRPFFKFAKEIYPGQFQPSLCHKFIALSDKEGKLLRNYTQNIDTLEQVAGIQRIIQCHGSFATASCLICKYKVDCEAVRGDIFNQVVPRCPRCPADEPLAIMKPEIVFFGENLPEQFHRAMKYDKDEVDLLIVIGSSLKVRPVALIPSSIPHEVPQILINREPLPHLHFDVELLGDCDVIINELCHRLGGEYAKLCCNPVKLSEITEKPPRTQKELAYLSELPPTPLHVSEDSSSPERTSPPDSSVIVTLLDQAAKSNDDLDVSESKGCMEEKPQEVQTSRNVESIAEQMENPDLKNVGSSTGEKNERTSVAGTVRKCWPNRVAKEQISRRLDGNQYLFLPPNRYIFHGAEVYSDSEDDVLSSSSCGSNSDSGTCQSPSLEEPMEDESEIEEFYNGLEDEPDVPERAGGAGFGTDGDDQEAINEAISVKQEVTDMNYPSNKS
UniProt Q8IXJ6: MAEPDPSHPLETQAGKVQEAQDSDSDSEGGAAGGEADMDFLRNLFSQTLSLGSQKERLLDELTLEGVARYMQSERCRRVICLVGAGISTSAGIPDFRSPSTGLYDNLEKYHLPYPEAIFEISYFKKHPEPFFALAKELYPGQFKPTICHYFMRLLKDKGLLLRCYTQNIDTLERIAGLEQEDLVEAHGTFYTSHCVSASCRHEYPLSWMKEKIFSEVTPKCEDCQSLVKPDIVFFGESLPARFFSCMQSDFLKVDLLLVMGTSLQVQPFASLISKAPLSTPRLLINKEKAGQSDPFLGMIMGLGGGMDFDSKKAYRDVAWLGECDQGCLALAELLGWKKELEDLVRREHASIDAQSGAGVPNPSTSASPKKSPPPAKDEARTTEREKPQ

[2] = biological target: human Rho Associated Coiled-coil Containing Protein Kinase 1 (ROCK1), ROCK1 (gene 6093) (UniProt Q13464); assay: NVS_ENZ_hROCK1: NovaScreen (NVS) Enzymatic Assay for human Rho Associated Coiled-coil Containing Protein Kinase 1 (ROCK1) (AID 2283214)
Summary of the method: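 Cell-free recombinant human ROCK1 activity assay; fluorescent substrate and product separated by electrophoretic mobility shift, read 1 h after dosing. Screened in duplicate at 25 uM; loss of signal versus DMSO baseline scored as inhibition.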

[3] = biological target: human Protein Tyrosine Phosphatase Non-receptor Type 9 (PTPN9), PTPN9 (gene 5780) (UniProt P43378); assay: NVS_ENZ_hPTPN9: NovaScreen (NVS) Enzymatic Assay for human Protein Tyrosine Phosphatase Non-receptor Type 9 (PTPN9) (AID 2283209)
Summary of the method: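 Sf9-expressed enzyme in a cell-free assay, fluorescence read 1.33 h after dosing with mobility-shift separation of substrate and product. Tested at 25 uM in duplicate, then up to 50 uM; signal loss versus DMSO.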

[4] = biological target: human Protein Tyrosine Phosphatase Receptor Type B (PTPRB), PTPRB (gene 5787) (UniProt P23467); assay: NVS_ENZ_hPTPRB: NovaScreen (NVS) Enzymatic Assay for human Protein Tyrosine Phosphatase Receptor Type B (PTPRB) (AID 2283211)
Summary of the method: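 Recombinant human PTPRB with a fluorescent substrate, product separated by electrophoretic mobility shift; read 1 h after dosing. Primary screen in duplicate at 25 uM; actives then retested in concentration series; loss of signal versus DMSO.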

[5] = biological target: human Protein Tyrosine Phosphatase Receptor Type F (PTPRF), PTPRF (gene 5792) (UniProt P10586); assay: NVS_ENZ_hPTPRF: NovaScreen (NVS) Enzymatic Assay for human Protein Tyrosine Phosphatase Receptor Type F (PTPRF) (AID 2283213)
Summary of the method: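 Cell-free fluorescence enzyme assay with recombinant protein and substrate; product separated by electrophoretic mobility shift. Read 1 h after dosing, single 25 uM duplicate screen, then concentration-response up to 50 uM; loss of signal vs DMSO.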

[6] = biological target: human Protein Tyrosine Phosphatase Receptor Type M (PTPRM), PTPRM (gene 5797) (UniProt P28827); assay: NVS_ENZ_hPTPRM: NovaScreen (NVS) Enzymatic Assay for human Protein Tyrosine Phosphatase Receptor Type M (PTPRM) (AID 2283215)
Summary of the method: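 Cell-free recombinant PTPRM with fluorogenic substrate; product separated from substrate by electrophoretic mobility shift and read by fluorescence, 1.33 h after dosing. Primary screen single concentration (25 uM) in duplicate; actives retested in concentration series; loss of signal versus DMSO.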

[7] = biological target: human Sirtuin 1 (SIRT1), SIRT1 (gene 23411) (UniProt Q96EB6); assay: NVS_ENZ_hSIRT1: NovaScreen (NVS) Enzymatic Assay for human Sirtuin 1 (SIRT1) (AID 2283219)
Summary of the method: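 Cell-free recombinant SIRT1 with a fluorescent substrate; substrate and product separated by electrophoretic mobility shift and read by fluorescence intensity, 1 h after dosing. Primary screen at 25 uM in duplicate; hits re-run in concentration-response up to 50 uM, relative to DMSO.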

[8] = biological target: human Sirtuin 2 (SIRT2), SIRT2 (gene 22933) (UniProt Q8IXJ6); assay: NVS_ENZ_hSIRT2: NovaScreen (NVS) Enzymatic Assay for human Sirtuin 2 (SIRT2) (AID 2283217)
Summary of the method: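 Cell-free recombinant human SIRT2, fluorescent substrate with product separated by electrophoretic mobility shift, 1 hr. Screened in duplicate at 25 uM; hits rerun singly in concentration-response up to 50 uM, relative to DMSO.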

[9] = biological target: human SRC Proto-Oncogene, Non-receptor Tyrosine Kinase (SRC), SRC (gene 6714) (UniProt P12931); assay: NVS_ENZ_hSRC: NovaScreen (NVS) Enzymatic Assay for human SRC Proto-Oncogene, Non-receptor Tyrosine Kinase (SRC) (AID 2283223)
Summary of the method: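 Cell-free kinase activity assay with fluorescent substrate, product separated by electrophoretic mobility shift, read 1 h after dosing. Duplicate single point at 25 uM, then concentration-response up to 50 uM; loss of signal versus DMSO.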

Which AC50 [1] does the source give for CCCCOC(=O)CCCCCCCCC(=O)OCCCC here?
The AC50 was inconclusive: 4.96 µM.

Which outcome [1] does the source give for C=CN1CCCC1=O here?
Its outcome is “inactive”.

How did the AC50 [1] turn out when O=[N+]([O-])c1ccc(O)cc1 was run?
Its AC50 is inconclusive: 0.0482 µM.

And the AC50 [2]?
Its AC50 is inconclusive: 42.9 µM.

What does the source list for COc1ccc(OC(F)(F)F)cc1CN[C@H]1CCCN[C@H]1c1ccccc1?
AC50 [3]: inconclusive: 6.46 µM; AC50 [4]: inconclusive: 42.8 µM; outcome [5]: inactive; outcome [6]: inactive

With O=C(O)C1(C(=O)Nc2ccc(Cl)cc2Cl)CC1 as the compound, how does the AC50 [1] read?
Its AC50 is inconclusive: 12.9 µM.

What about the AC50 [6] of the same compound?
The AC50 was active: 12.4 µM.

Which AC50 [4] does the source give for CC[C@H](C)C(=O)O[C@H]1C[C@@H](C)C=C2C=C[C@H](C)[C@H](CC[C@@H]3C[C@@H](O)CC(=O)O3)[C@H]21 here?
The AC50 was inconclusive: 25 µM.

Which AC50 [1] does the source give for CCCCCc1ccc(N)cc1 here?
The AC50 was inconclusive: 25 µM.

How did the AC50 [1] turn out when O=C(O)c1ccccc1 was run?
The AC50 was inconclusive: 25.6 µM.

With O=C(O)CN(CC(=O)O)CC(=O)O as the compound, how does the AC50 [1] read?
The AC50 was inconclusive: 5.92 µM.

What about the AC50 [7] of the same compound?
The AC50 was inconclusive: 22.9 µM.

How did the AC50 [1] turn out when CCOC(=O)COc1ccc2c(c1)CC(NCC(O)c1cccc(Cl)c1)CC2 (stereo unspecified) was run?
Its AC50 is inconclusive: 22.9 µM.

With CCCCC(CC)C(=O)OCCOCCOCCOC(=O)C(CC)CCCC (stereo unspecified) as the compound, how does the AC50 [1] read?
Its AC50 is inconclusive: 5.95 µM.

Which AC50 [1] does the source give for CC(=O)OC/C=C(\C)CCC=C(C)C here?
The AC50 was inconclusive: 25 µM.

How did the AC50 [1] turn out when Nc1ccc(Nc2ccccc2)cc1 was run?
The AC50 was inconclusive: 45.4 µM.

For Nc1nc(=S)c2[nH]cnc2[nH]1, which AC50 [3] is on record?
The AC50 was inconclusive: 0.0447 µM.

What about the AC50 [1] of the same compound?
Its AC50 is inconclusive: 25 µM.

For C1CNCCN1, which AC50 [1] is on record?
The AC50 was inconclusive: 0.314 µM.

With O=C(O)CC(O)(CC(=O)O)C(=O)O as the compound, how does the AC50 [8] read?
Its AC50 is inconclusive: 25 µM.

For CCCCCCCCCCCCCCOS(=O)(=O)O, which AC50 [9] is on record?
Its AC50 is active: 37.1 µM.

How did the AC50 [5] turn out when CCOC(=O)C(C)Oc1ccc(Oc2cnc3cc(Cl)ccc3n2)cc1 (stereo unspecified) was run?
The AC50 was inconclusive: 0.117 µM.

What does the source list for Clc1cc(Cl)c2c(c1)N=C1CCCCCN1C2?
outcome [4]: inactive; AC50 [7]: inconclusive: 12.5 µM

CC(C)CCCCCCOC(=O)CCCCC(=O)OCCCCCCC(C)C was tested. Which AC50 [6] did it give?
The AC50 was inconclusive: 25 µM.

For O=C(O)c1cccc(Oc2ccccc2)c1, which AC50 [9] is on record?
Its AC50 is inconclusive: 12.2 µM.

N[C@@H](Cc1cc(I)c(Oc2ccc(O)c(I)c2)c(I)c1)C(=O)O was tested. Which AC50 [9] did it give?
The AC50 was inconclusive: 20 µM.

Which AC50 [7] does the source give for CSc1ccc(Oc2ccc(S(N)(=O)=O)cc2CN(C)C)cc1C here?
The AC50 was inconclusive: 4.06 µM.
